Experimental data taken from article PMC10786907.
No constants are given. Whether binding was seen depends on the method and setting. In cells and extracts the contact can be indirect. Some binding calls cover weakened binding; strength is not graded here. Sequences can lack the tags named with a protein.

Molecular target: T1, Flag-FBXO31 (UniProt Q5XUX0)
T1 sequence: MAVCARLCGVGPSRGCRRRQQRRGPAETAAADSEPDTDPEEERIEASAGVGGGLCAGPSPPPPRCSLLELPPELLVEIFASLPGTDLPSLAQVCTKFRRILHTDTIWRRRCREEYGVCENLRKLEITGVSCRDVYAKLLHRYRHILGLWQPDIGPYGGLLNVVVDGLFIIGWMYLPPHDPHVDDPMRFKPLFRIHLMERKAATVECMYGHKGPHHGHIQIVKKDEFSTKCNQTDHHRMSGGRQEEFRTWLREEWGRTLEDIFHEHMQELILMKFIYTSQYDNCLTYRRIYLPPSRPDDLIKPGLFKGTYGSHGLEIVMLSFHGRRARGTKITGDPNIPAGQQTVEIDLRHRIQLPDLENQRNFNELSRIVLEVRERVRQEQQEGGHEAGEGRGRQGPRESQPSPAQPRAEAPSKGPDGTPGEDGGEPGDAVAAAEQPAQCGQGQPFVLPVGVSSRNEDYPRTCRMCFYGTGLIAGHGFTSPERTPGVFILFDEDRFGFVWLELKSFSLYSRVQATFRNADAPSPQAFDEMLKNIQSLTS
Assay: co-IP; transfected cells (293T, Panc-1, PaTu-8988, SW1990) treated with 10 μM MG132 for 6 h; NP40 lysate; HA or Flag magnetic beads; washed 3 times with TBST; western blotting

- binding: binds
B1: SIRT2 (protein, UniProt Q8IXJ6 1-389)
chain: MAEPDPSHPLETQAGKVQEAQDSDSDSEGGAAGGEADMDFLRNLFSQTLSLGSQKERLLDELTLEGVARYMQSERCRRVICLVGAGISTSAGIPDFRSPSTGLYDNLEKYHLPYPEAIFEISYFKKHPEPFFALAKELYPGQFKPTICHYFMRLLKDKGLLLRCYTQNIDTLERIAGLEQEDLVEAHGTFYTSHCVSASCRHEYPLSWMKEKIFSEVTPKCEDCQSLVKPDIVFFGESLPARFFSCMQSDFLKVDLLLVMGTSLQVQPFASLISKAPLSTPRLLINKEKAGQSDPFLGMIMGLGGGMDFDSKKAYRDVAWLGECDQGCLALAELLGWKKELEDLVRREHASIDAQSGAGVPNPSTSASPKKSPPPAKDEARTTEREKPQ
